Assay [1] addresses T1, HA-Rab12 (wild type) (human) (UniProt Q6IQ22).
T1 sequence: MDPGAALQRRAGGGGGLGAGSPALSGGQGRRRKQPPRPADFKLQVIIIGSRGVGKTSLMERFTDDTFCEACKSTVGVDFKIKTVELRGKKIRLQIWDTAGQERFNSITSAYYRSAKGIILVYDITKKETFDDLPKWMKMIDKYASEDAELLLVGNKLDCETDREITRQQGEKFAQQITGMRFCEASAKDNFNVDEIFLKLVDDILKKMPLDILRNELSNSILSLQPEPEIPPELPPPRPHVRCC
Description: affinity purification with mass spectrometry; HEK293 cells expressing flag-LRRK2-G2019S alone or in combination with HA-Rab8a, HA-Rab10 or HA-Rab12; interactors of the Rab quantified by MS (n=4 for Rab8a).

Chains of the proteins cited; added tags and fusions are not shown. Lines headed by an entry give the natural chain unless they say otherwise; changes in a name come on top.
UniProt P61006: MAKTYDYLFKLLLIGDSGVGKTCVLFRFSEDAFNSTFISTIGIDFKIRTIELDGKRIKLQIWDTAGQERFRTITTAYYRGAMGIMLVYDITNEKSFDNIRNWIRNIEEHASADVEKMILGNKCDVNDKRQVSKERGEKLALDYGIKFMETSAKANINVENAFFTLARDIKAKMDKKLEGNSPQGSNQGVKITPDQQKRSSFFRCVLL
UniProt P61026: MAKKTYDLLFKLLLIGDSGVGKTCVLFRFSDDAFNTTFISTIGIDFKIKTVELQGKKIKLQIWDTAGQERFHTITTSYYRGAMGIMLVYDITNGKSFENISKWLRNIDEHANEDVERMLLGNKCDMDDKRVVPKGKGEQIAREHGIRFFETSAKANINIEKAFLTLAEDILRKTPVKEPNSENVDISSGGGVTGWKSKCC
UniProt Q5S007: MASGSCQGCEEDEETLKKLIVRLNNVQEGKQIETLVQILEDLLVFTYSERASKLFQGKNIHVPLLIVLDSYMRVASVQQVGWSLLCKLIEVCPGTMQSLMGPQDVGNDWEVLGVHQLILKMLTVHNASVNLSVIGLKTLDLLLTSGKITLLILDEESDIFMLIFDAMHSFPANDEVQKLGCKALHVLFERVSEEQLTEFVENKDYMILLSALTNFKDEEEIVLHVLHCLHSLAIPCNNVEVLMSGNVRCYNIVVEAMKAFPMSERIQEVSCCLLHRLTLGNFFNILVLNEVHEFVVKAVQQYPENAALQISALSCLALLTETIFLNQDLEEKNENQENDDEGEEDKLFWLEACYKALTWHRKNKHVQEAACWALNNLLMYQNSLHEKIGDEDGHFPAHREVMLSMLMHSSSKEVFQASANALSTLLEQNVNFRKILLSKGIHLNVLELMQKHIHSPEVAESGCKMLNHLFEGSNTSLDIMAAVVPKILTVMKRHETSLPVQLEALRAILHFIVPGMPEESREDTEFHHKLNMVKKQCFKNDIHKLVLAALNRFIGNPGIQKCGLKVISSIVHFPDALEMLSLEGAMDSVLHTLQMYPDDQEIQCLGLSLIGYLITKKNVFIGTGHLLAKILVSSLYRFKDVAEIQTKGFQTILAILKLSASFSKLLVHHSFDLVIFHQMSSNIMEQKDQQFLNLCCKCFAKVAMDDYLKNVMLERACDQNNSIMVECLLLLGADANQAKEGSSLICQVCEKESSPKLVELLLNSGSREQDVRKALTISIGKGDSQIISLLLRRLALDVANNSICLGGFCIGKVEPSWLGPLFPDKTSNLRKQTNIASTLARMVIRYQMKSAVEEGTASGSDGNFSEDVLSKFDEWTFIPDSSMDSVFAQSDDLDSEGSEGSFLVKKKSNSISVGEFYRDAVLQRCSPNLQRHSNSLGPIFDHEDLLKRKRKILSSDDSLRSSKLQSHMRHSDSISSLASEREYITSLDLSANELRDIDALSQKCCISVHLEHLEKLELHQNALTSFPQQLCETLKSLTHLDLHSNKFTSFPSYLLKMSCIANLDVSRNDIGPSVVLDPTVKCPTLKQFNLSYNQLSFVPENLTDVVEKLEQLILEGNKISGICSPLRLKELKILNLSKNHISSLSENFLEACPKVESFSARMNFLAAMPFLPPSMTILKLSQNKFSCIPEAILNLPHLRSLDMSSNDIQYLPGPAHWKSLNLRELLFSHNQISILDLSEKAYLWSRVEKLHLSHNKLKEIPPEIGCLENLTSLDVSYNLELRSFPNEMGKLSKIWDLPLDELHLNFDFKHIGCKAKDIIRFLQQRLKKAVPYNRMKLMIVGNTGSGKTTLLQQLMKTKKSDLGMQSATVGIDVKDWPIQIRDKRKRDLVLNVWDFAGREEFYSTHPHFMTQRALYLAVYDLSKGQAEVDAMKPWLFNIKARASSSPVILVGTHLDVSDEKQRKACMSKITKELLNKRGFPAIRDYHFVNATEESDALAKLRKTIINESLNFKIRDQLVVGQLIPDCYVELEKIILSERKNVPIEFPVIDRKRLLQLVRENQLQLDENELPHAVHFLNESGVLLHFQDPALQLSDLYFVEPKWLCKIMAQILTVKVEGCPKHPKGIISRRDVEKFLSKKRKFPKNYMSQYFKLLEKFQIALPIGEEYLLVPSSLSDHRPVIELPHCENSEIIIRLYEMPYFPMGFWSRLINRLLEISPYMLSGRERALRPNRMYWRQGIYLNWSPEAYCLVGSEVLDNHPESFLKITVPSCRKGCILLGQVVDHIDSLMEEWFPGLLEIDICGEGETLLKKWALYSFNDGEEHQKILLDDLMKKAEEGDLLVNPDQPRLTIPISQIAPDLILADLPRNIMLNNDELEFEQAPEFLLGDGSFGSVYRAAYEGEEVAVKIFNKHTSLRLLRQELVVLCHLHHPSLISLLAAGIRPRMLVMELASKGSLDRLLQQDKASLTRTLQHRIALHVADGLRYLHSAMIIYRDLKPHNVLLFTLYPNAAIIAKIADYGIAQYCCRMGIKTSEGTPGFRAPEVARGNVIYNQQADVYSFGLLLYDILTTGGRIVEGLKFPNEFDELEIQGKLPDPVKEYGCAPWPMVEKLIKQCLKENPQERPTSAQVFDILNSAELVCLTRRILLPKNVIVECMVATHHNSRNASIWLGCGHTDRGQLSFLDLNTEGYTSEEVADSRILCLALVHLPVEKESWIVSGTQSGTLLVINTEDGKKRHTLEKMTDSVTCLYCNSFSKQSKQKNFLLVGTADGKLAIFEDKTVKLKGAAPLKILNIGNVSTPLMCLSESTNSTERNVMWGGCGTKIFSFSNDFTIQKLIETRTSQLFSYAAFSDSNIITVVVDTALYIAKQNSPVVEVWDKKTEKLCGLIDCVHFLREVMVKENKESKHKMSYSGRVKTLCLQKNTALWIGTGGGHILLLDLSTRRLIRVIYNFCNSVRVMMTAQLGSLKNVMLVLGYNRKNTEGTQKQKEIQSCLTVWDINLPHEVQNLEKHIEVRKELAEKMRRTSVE

For a further assay, the target named is HA-Rab8a (wild type) (UniProt P61006). The assay is described as above.
The target in a further assay is GFP-Rab8a (T72A) (UniProt P61006). Description: affinity purification with mass spectrometry; GFP-Rab8a T72A or T72E transiently expressed in HEK293; lysis in NP-40 extraction buffer; lysates incubated with GFP beads (Chromotek) for 2 hr; on-bead digestion; n=4.
The next assay addresses HA-Rab10 T73E (UniProt P61026). Description: affinity purification with mass spectrometry; Rab10 T73A/T73E (n=3) and Rab12 S106A/S106E (n=4) immunoprecipitated, interactors quantified by MS.
The next assay has as its target T2, HA-Rab12 S106E (human) (UniProt Q6IQ22).
T2 sequence: T1 sequence with S106E
Described as above.

The target of a further assay is HA-Rab10 T73A (UniProt P61026). The description is as above.
For a further assay, the target named is T3, HA-Rab12 S106A (human) (UniProt Q6IQ22).
T3 sequence: T1 sequence with S106A
The description is as above.

Numbering of substitutions follows the chain as printed. No constants are given. Whether binding was seen depends on the method and setting. In cells and extracts the contact can be indirect. A yes stands for co-enrichment or nearness to the bait. Other partners may have been found. For part of these data: No binding means not detected with the bait. For part of these data: Sequences can lack the tags named with a protein.

Turning to “flag-LRRK2-G2019S (from UniProt Q5S007 1-2527) (enzyme)”, the binding entry (in assay [1]; in the assay with HA-Rab8a (wild type)) was “binds” in each case.

B1: Rab GDP dissociation inhibitor β (GDI2) (protein, UniProt P50395 1-445)
chain: MNEEYDVIVLGTGLTECILSGIMSVNGKKVLHMDRNPYYGGESASITPLEDLYKRFKIPGSPPESMGRGRDWNVDLIPKFLMANGQLVKMLLYTEVTRYLDFKVTEGSFVYKGGKIYKVPSTEAEALASSLMGLFEKRRFRKFLVYVANFDEKDPRTFEGIDPKKTTMRDVYKKFDLGQDVIDFTGHALALYRTDDYLDQPCYETINRIKLYSESLARYGKSPYLYPLYGLGELPQGFARLSAIYGGTYMLNKPIEEIIVQNGKVIGVKSEGEIARCKQLICDPSYVKDRVEKVGQVIRVICILSHPIKNTNDANSCQIIIPQNQVNRKSDIYVCMISFAHNVAAQGKYIAIVSTTVETKEPEKEIRPALELLEPIEQKFVSISDLLVPKDLGTESQIFISRTYDATTHFETTCDDIKNIYKRMTGSEFDFEEMKRKKNDIYGED
Take B1: the binding result in the assay with GFP-Rab8a (T72A) is on record as “binds”; with HA-Rab10 T73E, “no binding”; with HA-Rab12 S106E (human) it was “no binding”; with HA-Rab10 T73A it was “binds”; in the assay with HA-Rab12 S106A (human), “binds”.

B2: Rab GDP dissociation inhibitor α (GDI1) (protein, UniProt P31150 1-447)
chain: MDEEYDVIVLGTGLTECILSGIMSVNGKKVLHMDRNPYYGGESSSITPLEELYKRFQLLEGPPESMGRGRDWNVDLIPKFLMANGQLVKMLLYTEVTRYLDFKVVEGSFVYKGGKIYKVPSTETEALASNLMGMFEKRRFRKFLVFVANFDENDPKTFEGVDPQTTSMRDVYRKFDLGQDVIDFTGHALALYRTDDYLDQPCLETVNRIKLYSESLARYGKSPYLYPLYGLGELPQGFARLSAIYGGTYMLNKPVDDIIMENGKVVGVKSEGEVARCKQLICDPSYIPDRVRKAGQVIRIICILSHPIKNTNDANSCQIIIPQNQVNRKSDIYVCMISYAHNVAAQGKYIAIASTTVETTDPEKEVEPALELLEPIDQKFVAISDLYEPIDDGCESQVFCSCSYDATTHFETTCNDIKDIYKRMAGTAFDFENMKRKQNDVFGEAEQ
As for B2, the binding result is on record as “binds” with GFP-Rab8a (T72A); “no binding” with HA-Rab10 T73E; “no binding” in the assay with HA-Rab12 S106E (human); “binds” with HA-Rab10 T73A; “binds” with HA-Rab12 S106A (human).

These data come from publication PMC4769169 (eLife, 2016).
